Data from patent publication US11931466B2, “Process for the preparation of drug loaded microparticles” (FERRING B.V., priority 2015, dated 2024).
Where a name gives a salt, the structure may show the parent alone.

Test: physchem
Details: 20 °C, organic solvent or mixture

solubility: 350 mg/mL
Structure (SMILES): COc1cc2c(cc1OC)C(=O)C(CC1CCN(Cc3ccccc3)CC1)C2 (stereo not shown) [Donepezil hydrochloride]
